According to patent US7144908B2, “Agonists of beta-adrenoceptors” (Glaxo Group Limited, priority 2002, dated 2006):
Some entries share one result that the patent states for a list of compounds.

Biological target: T1, human beta 2 adrenoreceptor (Homo sapiens, UniProt P07550)
T1 construct: expressed in transfected cells; host or cells: frog melanophores
Experiment: frog melanophores transfected with the human beta 2 adrenoreceptor, pigment dispersal (light transmittance)
Assay type: cell-based
Details: beta 2 agonist activity, pigment dispersal after melatonin

3-[3-(4-{[6-([(2R)-2-Hydroxy-2-[4-hydroxy-3-(hydroxymethyl)phenyl]ethyl}amino)hexyl]oxy}butyl)phenyl]imidazolidine-2,4-dione acetate [Example 7]
IC50: < 1 µM
